# Some of the results follow.
# B1: Epa3to2 (Candida glabrata) (protein)
# chain: MGSSHHHHHHSSGLVPRGSHMKRELSSQNPFGYPIGCSPQDVAIIPGLTMELYSYPIVSGTPPNCYDASYVDPEYPRTGYLKRKMVGKSTGVTGNLNYKYSVEKACMVKYGNLPAGYNYNEPLTVSNFTMILYGYFKAQTTGLHTFFVNADDLLYINFGAGNAFDCCKREDSKTKLGEYVAYDIWHVDSSKNKVSLFLEKDLYYPIRMFFNNRDNNSSLDLSFSVNGATDQISDFSGYLYSVPDQPDTCPAHIGYDTTCR
# Key:
# Assay in all cases: glycan array binding signal (z-score within array); higher = stronger binding
# Details in all cases: glycan notation: IUPAC condensed, linker removed
# [1] = target: GlcNAc(b1-3)Man
# Procedure, shortened: (§1)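 The binding signal is a Z-score computed within each array and averaged over linkers. Arrays of the same protein sequence at different concentrations or buffers were also averaged together. Data originate from 3228 arrays in the Consortium for Functional Glycomics database, kept only where the protein sequence was available.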
# [2] = target: GlcNAc(b1-3)[GlcNAc(b1-4)][GlcNAc(b1-6)]GlcNAc
# Procedure, shortened: as §1
# [3] = target: GlcNAc(b1-3)[GlcNAc(b1-6)]Gal(b1-4)GlcNAc
# Procedure, shortened: as §1
# [4] = target: GlcNAc(b1-3)[GlcNAc(b1-6)]GalNAc
# Procedure, shortened: as §1
# [5] = target: GlcNAc(b1-4)Gal(b1-4)GlcNAc
# Procedure, shortened: as §1
# [6] = target: GlcNAc(b1-4)GlcNAc
# Procedure, shortened: as §1
# [7] = target: GlcNAc(b1-4)GlcNAc(b1-4)GlcNAc
# Procedure, shortened: as §1
# [8] = target: GlcNAc(b1-4)GlcNAc(b1-4)GlcNAc(b1-4)GlcNAc(b1-4)GlcNAc
# Procedure, shortened: as §1
# [9] = target: GlcNAc(b1-4)GlcNAc(b1-4)GlcNAc(b1-4)GlcNAc(b1-4)GlcNAc(b1-4)GlcNAc
# Procedure, shortened: as §1
# [10] = target: GlcNAc(b1-4)[GlcNAc(b1-6)]GalNAc
# Procedure, shortened: as §1
# [11] = target: GlcNAc(b1-6)Gal(b1-4)GlcNAc
# Procedure, shortened: as §1
# [12] = target: GlcNAc(b1-6)GalNAc
# Procedure, shortened: as §1
# [13] = target: GlcNAc6S(b1-3)Gal(b1-4)GlcNAc
# Procedure, shortened: as §1
# [14] = target: Kdn(a2-3)Gal(b1-3)GalNAc
# Procedure, shortened: as §1
# [15] = target: Kdn(a2-3)Gal(b1-3)GlcNAc
# Procedure, shortened: as §1
# [16] = target: Kdn(a2-3)Gal(b1-4)Glc
# Procedure, shortened: as §1
# [17] = target: Kdn(a2-3)Gal(b1-4)GlcNAc
# Procedure, shortened: as §1
# [18] = target: Kdn(a2-3)Gal(b1-4)[Fuc(a1-3)]GlcNAc
# Procedure, shortened: as §1
# [19] = target: Kdn(a2-6)Gal(b1-4)GlcNAc
# Procedure, shortened: as §1
# [20] = target: Man(a1-2)Man(a1-2)Man(a1-3)Man
# Procedure, shortened: as §1
# [21] = target: Man(a1-2)Man(a1-2)Man(a1-6)[Man(a1-3)]Man
# Procedure, shortened: as §1
# [22] = target: Man(a1-2)Man(a1-3)Man
# Procedure, shortened: as §1
# [23] = target: Man(a1-2)Man(a1-3)[Man(a1-2)Man(a1-6)]Man
# Procedure, shortened: as §1
# [24] = target: Man(a1-2)Man(a1-3)[Man(a1-2)Man(a1-6)]Man(a1-6)[Man(a1-2)Man(a1-2)Man(a1-3)]Man
# Procedure, shortened: as §1
# [25] = target: Man(a1-2)Man(a1-3)[Man(a1-2)Man(a1-6)]Man(a1-6)[Man(a1-2)Man(a1-2)Man(a1-3)]Man(b1-4)GlcNAc(b1-4)GlcNAc
# Procedure, shortened: as §1
# [26] = target: Man(a1-2)Man(a1-3)[Man(a1-6)]Man(a1-6)[Man(a1-2)Man(a1-3)]Man(b1-4)GlcNAc(b1-4)GlcNAc
# Procedure, shortened: as §1
# [27] = target: Man(a1-2)Man(a1-6)[Man(a1-3)]Man(a1-6)[Man(a1-2)Man(a1-2)Man(a1-3)]Man
# Procedure, shortened: as §1
# [28] = target: Man(a1-2)Man(a1-6)[Man(a1-3)]Man(a1-6)[Man(a1-2)Man(a1-2)Man(a1-3)]Man(b1-4)GlcNAc(b1-4)GlcNAc
# Procedure, shortened: as §1
# [29] = target: Man(a1-3)[Man(a1-6)]Man
# Procedure, shortened: as §1
# [30] = target: Man(a1-3)[Man(a1-6)]Man(a1-6)[Man(a1-2)Man(a1-3)]Man(b1-4)GlcNAc(b1-4)GlcNAc
# Procedure, shortened: as §1
# [31] = target: Man(a1-3)[Man(a1-6)]Man(a1-6)[Man(a1-3)]Man
# Procedure, shortened: as §1
# [32] = target: Man(a1-3)[Man(a1-6)]Man(a1-6)[Man(a1-3)]Man(b1-4)GlcNAc(b1-4)GlcNAc
# Procedure, shortened: as §1
# [33] = target: Man(a1-3)[Man(a1-6)]Man(b1-4)GlcNAc(b1-4)GlcNAc
# Procedure, shortened: as §1
# [34] = target: Man(a1-3)[Man(a1-6)]Man(b1-4)GlcNAc(b1-4)[Fuc(a1-6)]GlcNAc
# Procedure, shortened: as §1
# [35] = target: Man(a1-6)Man
# Procedure, shortened: as §1
# [36] = target: Man(b1-4)GlcNAc
# Procedure, shortened: as §1
# [37] = target: MurNAc(b1-4)GlcNAc
# Procedure, shortened: as §1
# [38] = target: Neu5Ac(a2-3)Gal
# Procedure, shortened: as §1
binder,measurement,setting,value
B1,glycan array binding signal (z-score),[1],1.38
same,glycan array binding signal (z-score),[2],0.374
same,glycan array binding signal (z-score),[3],-0.215
same,glycan array binding signal (z-score),[4],-0.556
same,glycan array binding signal (z-score),[5],-0.138
same,glycan array binding signal (z-score),[6],1.27
same,glycan array binding signal (z-score),[7],-1.13
same,glycan array binding signal (z-score),[8],0.341
same,glycan array binding signal (z-score),[9],-0.884
same,glycan array binding signal (z-score),[10],-0.67
same,glycan array binding signal (z-score),[11],0.628
same,glycan array binding signal (z-score),[12],0.08
same,glycan array binding signal (z-score),[13],0.752
same,glycan array binding signal (z-score),[14],0.108
same,glycan array binding signal (z-score),[15],1.72
same,glycan array binding signal (z-score),[16],-0.039
same,glycan array binding signal (z-score),[17],-0.611
same,glycan array binding signal (z-score),[18],-0.049
same,glycan array binding signal (z-score),[19],1.52
same,glycan array binding signal (z-score),[20],-0.08
same,glycan array binding signal (z-score),[21],0.924
same,glycan array binding signal (z-score),[22],-0.593
same,glycan array binding signal (z-score),[23],-0.234
same,glycan array binding signal (z-score),[24],-0.546
same,glycan array binding signal (z-score),[25],-1.12
same,glycan array binding signal (z-score),[26],-0.278
same,glycan array binding signal (z-score),[27],-1.63
same,glycan array binding signal (z-score),[28],1.81
same,glycan array binding signal (z-score),[29],1.28
same,glycan array binding signal (z-score),[30],3.92
same,glycan array binding signal (z-score),[31],0.52
same,glycan array binding signal (z-score),[32],1.83
same,glycan array binding signal (z-score),[33],0.159
same,glycan array binding signal (z-score),[34],0.075
same,glycan array binding signal (z-score),[35],0.982
same,glycan array binding signal (z-score),[36],1.59
same,glycan array binding signal (z-score),[37],-0.143
same,glycan array binding signal (z-score),[38],-0.898

# Looked up one by one from above, 3 records:
binder,measurement,setting,value
B1,glycan array binding signal (z-score),[31],0.52
same,glycan array binding signal (z-score),[17],-0.611
same,glycan array binding signal (z-score),[4],-0.556
